Test results published in article PMC12548414.
In all, about 1,600 compounds went through this assay and about 20 (1%) showed an effect of 50% or more. This is one part of the list.

The molecules below were run on T1, E. coli pLC1021 (luc-trpAt trans-translation reporter). Conditions: reporter signal, KKL-35 = 100%; rise means trans-translation inhibition; 2 h, 20 µM.
T1 construct: pLC1021 luc-trpAt reporter strain
Parameters: species or system Escherichia coli pLC1021; luc-trpAt non-stop luciferase reporter; luminescence rises when trans-translation is inhibited; normalized to KKL-35 and DMSO
Summary of the method: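 Cells carrying the non-stop luc-trpAt reporter were exposed to 20 µM compound for 2 h at room temperature, then Bright-Glo was added and luminescence read at 560 nm after 10 min. Signals were normalised per plate to DMSO and 20 µM KKL-35 wells. Hits: activity one SD above the median; ≥2 biological repeats averaged.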
O=C(C=Cc1ccco1)N1CCN(Cc2ccc3c(c2)OCO3)CC1 [KKL-1821] was tested, and the “% activation” value was 0%. With CSc1nsc(SCC(=O)Nc2ccc(OC(C)=O)cc2)n1 [KKL-1110] the “% activation” value was 0%. With CCn1c(NCc2c(O)ccc3ccccc23)nc2ccccc21 [KKL-1357] the “% activation” value was 0%. For Cc1ccc2[nH]c(C3CCCNC3)c(-c3ccncc3)c2c1 (stereo not drawn) [KKL-1820], the “% activation” value was 14%. With Cc1cccc(C2(O)CCN(Cc3[nH]c4ccccc4c3C)CC2)c1 [KKL-0557] the “% activation” value was 2%. For O=C(COc1cccc2ccccc12)c1ccc(Cl)cc1 [KKL-1353], the “% activation” value was 0%. c1ccc(-c2nn(-c3ccccc3)cc2CNC2CCCc3c2cnn3-c2ccccn2)cc1 (stereo not drawn) [KKL-1169] was tested, and the “% activation” value was 0%. With Cc1cc(/C=C/c2cccc(C(=O)O)c2)cc(Cl)c1OC[C@@H]1CCCN1C [KKL-1850] the “% activation” value was 8%. For CCOC(=O)c1sc(NC(=O)CNCc2ccccn2)c(C(=O)OCC)c1C [KKL-0839], the “% activation” value was 0%. COc1ccc(-c2ccc(Nc3cccc(S(=O)(=O)CCNCCc4cccs4)c3)nc2)cn1 [KKL-1750] was tested, and the “% activation” value was 0%. In the case of Clc1ccc2c(c1)C1=C(C(c3ccncc3)O2)C(c2ccc(Br)cc2)n2ncnc2N1 (stereo not drawn) [KKL-0378], the “% activation” value is reported as 0%. CCOc1ccccc1NC(=O)CN1CCC(C(=O)c2ccc(F)cc2)CC1 [KKL-1265] was tested, and the “% activation” value was 3%. With CN(C)c1ccc(/C=C/c2nc3ccccc3c(=O)n2-c2ccccc2)cc1 [KKL-1244] the “% activation” value was 4%. With CCOc1ccc(C2c3[nH]c4ccccc4c3CCN2Cc2cnc(SC)nc2)cc1 (stereo not drawn) [KKL-0480] the “% activation” value was 0%. For CC(C)c1noc(N2CCC(C(C)Oc3cnc(-c4ccc(S(C)(=O)=O)c(F)c4)cn3)CC2)n1 (stereo not drawn) [KKL-1810], the “% activation” value was 0%. In the case of Cc1oc2ccccc2c1CN(CCCn1ccnc1)Cc1cccc(F)c1 [KKL-0544], the “% activation” value is reported as 0%. CCC(C)c1ccc(O)c(NC(=S)NC(=O)c2cccnc2)c1 (stereo not drawn) [KKL-0436] was tested, and the “% activation” value was 17%. With CCOc1ccc2nc3cc(N)ccc3c(N)c2c1 [KKL-1485] the “% activation” value was 1%. O=C(NC12CC3CC(CC(C3)C1)C2)N1CCN(c2cccc(C(F)(F)F)c2)CC1 [KKL-1309] was tested, and the “% activation” value was 3%. O=C(NC(=S)Nc1ccc(F)cc1)c1ccc(Br)cc1 [KKL-0408] was tested, and the “% activation” value was 0%. With N#Cc1ccc(NC(=O)CSc2ccc(Br)cc2)cc1 [KKL-1577] the “% activation” value was 0%. CCOC(=O)C1(CC2CC2)CCN(Cc2ccc(OC)c(C)c2C)CC1 [KKL-1176] was tested, and the “% activation” value was 0%. CCCCNCC1COc2ccc(OC)cc2C1=O (stereo not drawn) [KKL-1732] was tested, and the “% activation” value was 0%. With c1ccc2sc(NC3=NCN(Cc4ccc5c(c4)OCO5)CN3)nc2c1 [KKL-0573] the “% activation” value was 2%. For Cn1nc2c(c1C(=O)N1CCc3c([nH]c4ccccc34)C1c1ccccc1F)CCCC2 (stereo not drawn) [KKL-0491], the “% activation” value was 0%. In the case of Cc1cccc(-n2cc(CN3CCN(c4ccncc4)CC3)c(-c3cccc(F)c3)n2)c1 [KKL-0498], the “% activation” value is reported as 0%. For CCOc1ccc(-c2nc(CNCCc3ccc(F)cc3)cs2)cc1 [KKL-1803], the “% activation” value was 0%. For COC(=O)c1ccc(-c2nc(CN3CCC4(C=Cc5ccccc54)CC3)c(C)o2)cc1 [KKL-1167], the “% activation” value was 5%. With CC(C)n1cc(CN2CCC(C(=O)Nc3cccc(-c4cccc(Cl)c4)c3)CC2)cn1 [KKL-0628] the “% activation” value was 0%. For Cc1ccc(CN(CCCn2ccnc2)Cc2cc3c(cc2Cl)OCO3)s1 [KKL-0509], the “% activation” value was 2%. For Cc1cc(C(C)(C)C)ccc1OCCCCn1ccnc1 [KKL-1326], the “% activation” value was 12%. With CC1CN(c2ccc([N+](=O)[O-])cc2)CCN1C(=O)c1cccc(Br)c1 (stereo not drawn) [KKL-1355] the “% activation” value was 0%. CC(=O)c1cccc(Nc2cc(C)nc3c2ccc2ccccc23)c1 [KKL-0859] was tested, and the “% activation” value was 0%. CCOC(=O)c1ccc(NC(=S)NC(=O)CCc2ccccc2)cc1 [KKL-1432] was tested, and the “% activation” value was 0%. COc1cccc(N2CCN(Cc3nc(N)nc(Nc4ccc(C)c(Cl)c4)n3)CC2)c1 [KKL-1239] was tested, and the “% activation” value was 0%. For C=CCOc1ccc(CN2C[C@@H](CN(C)C)[C@H](c3ccnc(N4CCCC4)n3)C2)cc1 [KKL-0449], the “% activation” value was 0%. With O=C(Nc1ccc2c(c1)OCCO2)c1cccc2nc3ccccc3nc12 [KKL-0843] the “% activation” value was 0%. In the case of O=C(NCCc1c[nH]c2ccccc12)c1cc2ccccc2oc1=O [KKL-0841], the “% activation” value is reported as 0%. In the case of Cc1ccc(C(=O)Nc2nc(C)c(C(=O)Nc3ccc4c(c3)CCC4)s2)cc1 [KKL-1668], the “% activation” value is reported as 0%. With Cn1nc(-c2ccco2)cc1[C@H]1CN2CC[C@H]1C[C@@H]2COC(=O)Nc1cccc(C(F)(F)F)c1 [KKL-1589] the “% activation” value was 0%. For Cc1ccc(-c2csc(Nc3ccc(N)cc3)n2)cc1 [KKL-0538], the “% activation” value was 0%. With COC(=O)[C@@H]1Cc2c([nH]c3ccccc23)[C@@H]2C[C@H](NCCCn3ccnc3)C[C@@H](c3ccc(F)c(F)c3)N12 [KKL-1605] the “% activation” value was 1%. With Cc1cc(NCCc2ccccc2)nc(NC(=N)Nc2ccc(Cl)cc2)n1 [KKL-1786] the “% activation” value was 3%. CC(=O)NC(=S)NNC(=O)c1ccc(-c2ccccc2)cc1 [KKL-0063] was tested, and the “% activation” value was 99%. With CCOC(=O)C1(CCc2ccccc2)CCN(C(=O)Nc2ccc(SC)cc2)CC1 [KKL-1179] the “% activation” value was 2%. In the case of Nc1ccccc1Nc1ccc(Cl)cc1 [KKL-1846], the “% activation” value is reported as 3%. In the case of OCCN1CCN(c2nc(-c3ccccc3)nc3c2oc2ccccc23)CC1 [KKL-0954], the “% activation” value is reported as 12%. With CCCCCCCCCCn1c2c(c(=N)c3c1CCC3)CCC2 [KKL-0884] the “% activation” value was 12%. In the case of C=CCn1c(Sc2ccc(C(F)(F)F)cc2[N+](=O)[O-])nnc1-c1ccccc1Cl [KKL-1285], the “% activation” value is reported as 5%. In the case of Cc1oc(-c2cccs2)nc1CN1CCc2c([nH]c3ccccc23)C1c1ccccn1 (stereo not drawn) [KKL-0484], the “% activation” value is reported as 6%. For Clc1ccc(OCCCCn2ccnc2)cc1Cl [KKL-1382], the “% activation” value was 7%. With CCCn1c(CNc2ccccc2O)nc2ccccc21 [KKL-1474] the “% activation” value was 0%. In the case of O=C(CCCSc1nnc(SCCCC(=O)c2ccc(F)cc2)s1)c1ccc(F)cc1 [KKL-1094], the “% activation” value is reported as 2%. CCOC(=O)N1CCN(CCC(=O)c2ccc(Cl)cc2)CC1 [KKL-1065] was tested, and the “% activation” value was 0%.
